Among the data in PubChem BioAssay AID2685 (National Center for Advancing Translational Sciences (NCATS), 2010) are cell number change and AC50 values, retold here.

Structures are written as SMILES. This is one part of the list. Further columns of the screen follow, without active or inactive calls. Most of these compounds were active or inconclusive in the main read-out, so they are no random draw. Words in brackets tell the shape of the fitted curve; partial curves, single points and poor fits give uncertain potencies.

The assay in a line: qHTS Assay for Lipid Storage Modulators in Drosophila S3 Cells.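 As to cell number change: cells counted by Cell Tracker Red CMTPX staining in the red channel.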 The following applies: BODIPY lipid droplet fluorescence, 18-24 h; for cell number change: measured here: cell count max response, cells fed with added oleic acid. Summed up:
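Drosophila S3 cells got compounds at several concentrations plus oleic acid (400 uM solution). Laser-scanning cytometry with 488 nm excitation read lipid droplets at 500-530 nm and cells at 575-640 nm. Percent activity was relative to 20 uM Triacsin C.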
Background: Quantitative high-throughput screening tests each substance at several concentrations.

Setting [1] is: measured here: lipid fluorescence (Fed channel) AC50, cells fed with added oleic acid.
The mark [2] stands for this setting: measured here: cell number channel AC50, cells fed with added oleic acid.

`Cc1cc(N2CCN(c3ccccc3)CC2)nc(-c2ccccc2)n1`: the cell number change is -11.4%. Turning to `O=C(/C=C/c1ccccc1)NC(=S)Nc1cccnc1`, the cell number change is -24.5%. Besides, under setting [1], the AC50 is 3.26 µM [falling, full curve]. With `CSc1ccc(CNc2nc3ccccc3n3cnnc23)cc1`, the cell number change is -4.91%. As for `O=C(Oc1nsnc1N1CCOCC1)N(c1ccccc1)c1ccccc1`, the cell number change amounted to 32.9%. Further, under setting [2], the AC50 was 0.92 µM [rising, full curve, poor fit]. In addition, the AC50 under setting [1] was 29.1 µM [falling, partial curve]. `CCN1CCN(CCCNC(=O)Cn2nc(C)n3nc(-c4ccccc4)cc3c2=O)CC1`: the cell number change was -2.69%.

On to `CCOP(=O)(OCC)C(NCc1ccccc1)c1ccc(Br)cc1` (configuration not stated), for which the cell number change is -42.3%. Besides, the AC50 under setting [2] is 32.6 µM [falling, single point]. In the case of `O=C(NC(=S)NCC1CCCO1)c1ccccc1F` (configuration not stated), the cell number change is -37.6%.

`COc1ccc(NC(=O)CN2CCc3ccccc3C2)cc1S(=O)(=O)N1CCOCC1`: the cell number change was -6.99%. The AC50 under setting [1] is 2.59 µM [falling, partial curve]. Turning to `Cc1cc(S(=O)(=O)NCc2ccccc2)ccc1OCC(=O)Nc1cccc([N+](=O)[O-])c1`, the cell number change was -52.2%. In addition, the AC50 under setting [2] was 29.1 µM [falling, single point]. In addition, the AC50 under setting [1] was 23.1 µM [falling, single point]. As for `COC(=O)c1cc(C(=O)NCCCN2CCOCC2)cc([N+](=O)[O-])c1`, the half-maximal activity concentration (AC50) under setting [2] was 4.61 µM [rising, single point]. As for `CC(=O)[C@@H]1[C@@H]2C(=O)N(Cc3ccccc3)C(=O)[C@@H]2C2c3ccccc3C=CN21` (some centres not stated), the cell number change was 32.7%. Besides, the concentration at half-maximal activity (AC50) under setting [2] is 2.91 µM [rising, full curve]. For the same compound, the half-maximal activity concentration (AC50) under setting [1] is 6.51 µM [rising, single point]. On to `COc1ccc2oc(C(=O)OCC(=O)Nc3cc(S(=O)(=O)N4CCOCC4)ccc3C)c(C)c2c1`, for which the cell number change was -33.9%. Further, under setting [2], the AC50 is 7.31 µM [falling, partial curve, poor fit]. Besides, under setting [1], the AC50 is 16.4 µM [falling, partial curve, poor fit].

On to `CCOC(=O)C1=C(c2ccccc2)OC(N)=C(C#N)C1C(C)C` (configuration not stated), for which the cell number change is -17.8%. The AC50 under setting [1] is 0.092 µM [rising, full curve, poor fit]. Regarding `CCOc1ccc(C(CCc2ccccc2)NC(=O)c2ccccc2F)cc1OCC` (configuration not stated), the AC50 under setting [1] was 0.58 µM [falling, single point]. `CCN1C(=O)[C@H]2[C@@H](c3ccc(SC4CCCCC4)c(OC)c3)N[C@@](Cc3ccccc3)(C(=O)OC)[C@H]2C1=O`: the cell number change was 17.9%. Also, the AC50 under setting [1] was 4.11 µM [falling, partial curve, poor fit]. In the case of `COc1cccc(CNC(=O)c2ccc(CS(=O)c3ccccc3)o2)c1` (configuration not stated), the cell number change is -10%. Further, the AC50 under setting [1] was 29.1 µM [falling, single point].

Turning to `COc1cc(/C=C2\C(=N)N3N=C(C)SC3=NC2=O)cc(Cl)c1OCCOc1ccc(NC(C)=O)cc1`, the AC50 under setting [1] is 9.2 µM [rising, partial curve, poor fit].

Take `O=C(CCNS(=O)(=O)c1ccc(Br)cc1)NC1CCN(Cc2ccccc2)CC1`: the cell number change was 1.12%. Moreover, under setting [1], the AC50 is 29.1 µM [falling, single point]. `Cc1cc(C(C)(C)C)cc(C)c1CCNC(=O)c1ccc[n+]([O-])c1`: the cell number change was -18.3%. Also, under setting [1], the AC50 is 25.9 µM [falling, single point]. Turning to `Cc1noc(/C=C/N(C)C)c1S(=O)(=O)N1CCC(C(=O)O)CC1`, the cell number change is -30.3%. The AC50 under setting [2] was 0.116 µM [falling, full curve]. Besides, the AC50 under setting [1] is 0.206 µM [falling, full curve]. Regarding `Cc1ccc(-c2nc(NCCN(C)C)c3ccccc3n2)cc1`, the cell number change came to 17.2%. Under setting [1], the AC50 was 29.1 µM [falling, single point]. For the compound `O=C(CCC1CCCCC1)Nc1cc(Cl)ccc1N1CCOCC1`, the cell number change was found to be 49.5%. In the case of `O=C(CCN1C(=O)S/C(=C/c2ccc(Cl)cc2)C1=O)N1CCOCC1`, the cell number change came to 52.5%. In addition, the AC50 under setting [2] is 29.1 µM [rising, single point]. Further, under setting [1], the concentration at half-maximal activity (AC50) is 0.164 µM [rising, full curve, poor fit]. Regarding `COc1ccc([C@@H]2Sc3ccccc3N(CCN(C)C)C(=O)[C@@H]2OC(C)=O)cc1`, the cell number change stood at 13%. The half-maximal activity concentration (AC50) under setting [1] was 16.4 µM [rising, single point]. On to `CCOC(=O)c1ccc2nc3c(cc2c1)CCS3`, for which the cell number change turned out to be 14.3%. For `CCOC(=O)c1c(N)sc(C(=O)N(C)C)c1CN1CCOCC1`, the cell number change came to 23.7%. Moreover, the AC50 under setting [1] is 6.51 µM [falling, partial curve, poor fit].

`CC(C)(C)NC(=O)CCN(/N=C/c1ccccc1O)C1=NS(=O)(=O)c2ccccc21`: the cell number change was -27%. For the same compound, the concentration at half-maximal activity (AC50) under setting [1] is 29.1 µM [falling, single point].

With `COc1cc(/C=C(\C#N)c2nc3ccccc3[nH]2)c([N+](=O)[O-])cc1OCc1ccccc1`, the cell number change is -50.4%. Besides, under setting [2], the AC50 is 23.1 µM [falling, single point]. In addition, the AC50 under setting [1] was 14.6 µM [falling, single point]. In the case of `c1cncc(-c2nnc(SCc3cccc4ccccc34)o2)c1`, the cell number change amounted to 29.3%. For the same compound, under setting [1], the AC50 is 3.26 µM [rising, single point]. Consider `CSc1ccccc1NC(=O)C1CC(c2ccccc2Cl)=NO1` (configuration not stated), for which the cell number change is -4.95%. Also, the AC50 under setting [1] is 29.1 µM [rising, single point]. Consider `N#Cc1c(-c2ccc(Cl)cc2)ccn2nc(C3CCCCC3)nc12`, for which the cell number change was found to be 7.9%. Consider `CN(C)C(=O)N1CCCC(C(=O)NCc2ccc(F)cc2Cl)C1` (configuration not stated), for which the cell number change was -10.7%. For the compound `Cc1c(Cl)cccc1NC(=O)C1CCN(c2cnccn2)CC1`, the cell number change was 16.7%. In addition, under setting [1], the AC50 was 5.17 µM [falling, single point]. For `O=C1CCCCCCC1Sc1ccccc1[N+](=O)[O-]` (configuration not stated), the cell number change is -4.16%. The AC50 under setting [1] was 29.1 µM [falling, single point]. `COc1ccc(OC)c(CC(NC(C)=O)C(=O)NC2CCN(S(=O)(=O)c3ccc(NC(C)=O)cc3)CC2)c1` (configuration not stated): the cell number change was found to be 38.5%. Moreover, under setting [2], the AC50 is 25.9 µM [rising, partial curve, poor fit]. Further, the AC50 under setting [1] was 0.13 µM [falling, full curve]. As for `Cc1ccc(S(=O)(=O)N2CCN(C(=O)COC(=O)c3ccc(O)cc3)CC2)c(C)c1`, the cell number change amounted to 19.5%. Moreover, under setting [1], the AC50 was 23.1 µM [rising, single point]. With `CCOc1ccccc1N(CC(=O)NCc1ccncc1)S(=O)(=O)c1ccccc1`, the cell number change was found to be 8.97%.

As for `Cc1ccc(C)c(-n2ccnc2SCC(=O)c2c(N)n(C3CC3)c(=O)[nH]c2=O)c1`, the cell number change was found to be 12.6%. Besides, the AC50 under setting [1] is 0.00461 µM [rising, full curve, poor fit].

Usually AC50 stands for the concentration at which the activity in the assay is half-maximal.
